Patent US20110165623A1
These are yes or no findings as the source states them, for the method shown. For some assays here: In cells and extracts the contact can be indirect. Some entries that bind do so weakly or less than the wild type.

Legend:
[1] = molecular target: purified recombinant mature TGFβ1 (expressed in CHO cells from the modified porcine TGFβ1 cDNA) (porcine) (UniProt P07200); test: mature TGFβ1 purified together with His-tagged LAP on Ni-NTA, released by acid
[2] = molecular target: 8-histidine tagged latency-associated peptide (LAP) of porcine TGFβ1 with Cys 33 replaced by serine (porcine) (UniProt P07200); test: co-purification on a Ni-NTA column through the 8-histidine tag on LAP, SDS-PAGE stained with Coomassie blue

Row | binding [1] | binding [2] | Substance
1 | binds | – | 8-histidine tagged latency-associated peptide (LAP) of porcine TGFβ1 with Cys 33 replaced by serine (from UniProt P07200 34-278)
2 | – | binds | purified recombinant mature TGFβ1 (expressed in CHO cells from the modified porcine TGFβ1 cDNA) (from UniProt P07200 279-390) (ligand)
